For assay [1], the target named is human EPHB4 (Ephrin type-B receptor 4) on 293-humanEPHB4-GFP cells (human) (UniProt P54760). Nature of the assay: flow cytometry on cells; 293-GFP, 293-humanEPHB4-GFP and 293-murineEPHB4-GFP cells incubated with 2 ug/mL recombinant human Ephrin B2-Fc for 30 min on ice, washed twice with D-PBS, stained with APC-conjugated anti IgG-Fc antibody for 30 min on ice; only the binder purified. (In general: Flow cytometry measures light scatter and fluorescence of single cells or particles in a stream.)

By UniProt entry, the sequences of proteins in these tests, tags left out. Where a name states a change or a piece, a line headed by the entry shows the natural chain unless it says otherwise. Residues count along the entry.
UniProt P54760, residues 16-987: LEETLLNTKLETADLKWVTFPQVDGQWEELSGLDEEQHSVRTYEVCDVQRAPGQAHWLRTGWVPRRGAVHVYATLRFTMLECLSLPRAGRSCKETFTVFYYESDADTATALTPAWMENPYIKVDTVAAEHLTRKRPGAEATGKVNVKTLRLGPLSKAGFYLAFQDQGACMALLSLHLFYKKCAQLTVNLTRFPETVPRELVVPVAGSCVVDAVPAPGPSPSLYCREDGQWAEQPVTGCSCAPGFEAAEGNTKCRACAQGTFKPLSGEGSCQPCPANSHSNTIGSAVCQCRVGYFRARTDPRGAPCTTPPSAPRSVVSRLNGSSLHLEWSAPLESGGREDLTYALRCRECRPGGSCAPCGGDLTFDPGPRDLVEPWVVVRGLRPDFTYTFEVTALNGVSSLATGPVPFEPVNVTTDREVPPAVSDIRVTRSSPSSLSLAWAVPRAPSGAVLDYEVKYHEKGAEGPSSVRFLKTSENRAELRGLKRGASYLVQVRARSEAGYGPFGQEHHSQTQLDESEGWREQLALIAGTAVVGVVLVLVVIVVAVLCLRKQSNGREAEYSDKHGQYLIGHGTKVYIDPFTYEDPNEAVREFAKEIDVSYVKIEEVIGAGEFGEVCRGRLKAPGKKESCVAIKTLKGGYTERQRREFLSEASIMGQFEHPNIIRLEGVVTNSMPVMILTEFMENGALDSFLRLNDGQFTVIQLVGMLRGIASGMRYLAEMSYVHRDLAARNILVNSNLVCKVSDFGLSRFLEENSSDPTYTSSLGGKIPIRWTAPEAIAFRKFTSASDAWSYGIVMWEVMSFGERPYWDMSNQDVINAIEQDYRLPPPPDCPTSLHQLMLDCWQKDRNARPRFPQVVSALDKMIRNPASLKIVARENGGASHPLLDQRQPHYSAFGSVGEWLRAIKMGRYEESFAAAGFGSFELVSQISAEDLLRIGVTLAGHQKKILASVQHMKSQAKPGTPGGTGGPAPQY
UniProt P54761, residues 16-987: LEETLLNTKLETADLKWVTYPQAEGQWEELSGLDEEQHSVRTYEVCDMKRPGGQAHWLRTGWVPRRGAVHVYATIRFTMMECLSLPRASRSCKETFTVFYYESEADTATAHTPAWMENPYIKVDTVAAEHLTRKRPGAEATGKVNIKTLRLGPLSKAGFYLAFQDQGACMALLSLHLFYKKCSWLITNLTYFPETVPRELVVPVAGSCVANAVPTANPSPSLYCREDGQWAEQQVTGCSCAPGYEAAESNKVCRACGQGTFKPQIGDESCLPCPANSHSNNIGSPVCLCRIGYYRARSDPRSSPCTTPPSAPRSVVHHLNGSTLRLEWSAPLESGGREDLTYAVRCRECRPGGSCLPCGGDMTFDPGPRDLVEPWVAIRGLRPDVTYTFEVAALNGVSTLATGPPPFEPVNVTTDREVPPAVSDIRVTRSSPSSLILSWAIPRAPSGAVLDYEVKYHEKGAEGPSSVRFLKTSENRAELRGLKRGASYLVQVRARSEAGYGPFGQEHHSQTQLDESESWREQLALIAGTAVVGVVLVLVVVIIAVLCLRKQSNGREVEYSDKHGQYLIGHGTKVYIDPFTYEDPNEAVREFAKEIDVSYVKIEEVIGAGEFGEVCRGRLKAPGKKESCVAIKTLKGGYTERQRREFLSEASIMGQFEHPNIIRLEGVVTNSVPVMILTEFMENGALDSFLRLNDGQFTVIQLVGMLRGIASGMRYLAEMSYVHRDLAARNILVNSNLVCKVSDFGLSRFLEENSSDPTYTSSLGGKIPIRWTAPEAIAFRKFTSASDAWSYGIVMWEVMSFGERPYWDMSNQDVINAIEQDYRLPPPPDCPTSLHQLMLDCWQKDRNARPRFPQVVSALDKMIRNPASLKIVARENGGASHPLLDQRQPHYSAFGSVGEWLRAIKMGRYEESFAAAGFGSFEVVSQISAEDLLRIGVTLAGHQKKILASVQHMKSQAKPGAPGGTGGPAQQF
UniProt P52799, residues 28-229: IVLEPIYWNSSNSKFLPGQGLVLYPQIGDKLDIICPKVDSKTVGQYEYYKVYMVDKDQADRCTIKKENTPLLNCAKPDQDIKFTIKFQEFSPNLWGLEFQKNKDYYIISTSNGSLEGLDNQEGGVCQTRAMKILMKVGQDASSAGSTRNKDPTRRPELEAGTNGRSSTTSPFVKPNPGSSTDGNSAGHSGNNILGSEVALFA

The target of assay [2] is murine EPHB4 on 293-murineEPHB4-GFP cells (murine) (UniProt P54761). Described as above.

This passage reports binding results from PMC7985479.

These are yes or no findings as the source states them, for the method shown. Some binding calls cover weakened binding; strength is not graded here.

On to “recombinant human Ephrin B2-Fc chimera protein (from UniProt P52799 28-229) (Fc fusion)”, for which the binding result in assay [1] and in assay [2] was “binds” throughout.
